Source: US8685974B2 (Bayer CropScience AG, priority 2009, dated 2014)

Assay: physchem
Details: pH 2.7

Question: For c1csc(-c2cc[nH]n2)c1 [3-(2-Thienyl)-1H-pyrazole], which logP is on record?
Answer: 1.3
